“And” between values parts separate entries of the source, which are not always exact repeats. Equal values may be shown once.
Assay: general procedure: Boc solid-phase peptide synthesis; p-methylbenzhydrylamine resin (0.25-0.39 mmol/g); BOC-(Cl2Bzl)Tyr-resin ester (0.32 meq/g); dicyclohexylcarbodiimide/1-hydroxybenzotriazole
Conditions: for isolated yield / final HPLC purity: whole synthesis

Row | Substance | isolated yield | also measured
1 | Nα-Acetyl-Arginyl-Prolyl-Aspartyl-Alanyl-Tyrosine | 55% | –
2 | Nα-Acetyl-Arginyl-Prolyl-Aspartyl-Isoleucyl-Tyrosine | 65% | –
3 | Arginyl-α-Aminoisobutyryl-Aspartyl-Valyl-Tyrosine amide | 50% yield | –
4 | Boc(NO2^g)Arg-Pro-(Bzl^β)-Asp-Val-Tyr-NHCH3 | – | step yield (coupling step): 83%
5 | Nα-Acetyl-Arginyl-Prolyl-Aspartyl-Glutamyl-Tyrosine | 53% | –
6 | Nα-Formyl-Arginyl-Prolyl-Aspartyl-Valyl-Tyrosine | 71% | –
7 | Nα-acetyl-D-Arginyl-Prolyl-Aspartyl-Valyl-Tyrosine Amide | – | final HPLC purity (run 1): 98.8% and 98.4% and 97.3%
8 | Nα-acetyl-Arginyl-Prolyl-Aspartyl-Valyl-Tyrosine amide | – | final HPLC purity: greater than 99%
9 | Nα-Succinoyl-Arginyl-Prolyl-Aspartyl-Valyl-Tyrosine | 78% | –
10 | Nα-Acetyl-Arginyl-Prolyl-Aspartyl-Valyl-Tyrosine-N-Methylamide | 49% | final HPLC purity: 92% by HPLC
